Results from publication PMC10699776.
These are yes or no findings as the source states them, for the method shown. In cells and extracts the contact can be indirect. A yes stands for co-enrichment or nearness to the bait. Other partners may have been found.

Chains of the proteins cited; added tags and fusions are not shown. Lines headed by an entry give the natural chain unless they say otherwise; changes in a name come on top. Residues count along the entry.
UniProt P63165, residues 1-97: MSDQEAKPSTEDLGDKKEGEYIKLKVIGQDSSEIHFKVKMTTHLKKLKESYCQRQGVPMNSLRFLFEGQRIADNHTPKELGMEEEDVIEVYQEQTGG
UniProt P61956: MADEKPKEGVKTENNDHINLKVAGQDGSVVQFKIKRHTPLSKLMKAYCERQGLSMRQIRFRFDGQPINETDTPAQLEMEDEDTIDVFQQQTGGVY
UniProt P55854, residues 1-92: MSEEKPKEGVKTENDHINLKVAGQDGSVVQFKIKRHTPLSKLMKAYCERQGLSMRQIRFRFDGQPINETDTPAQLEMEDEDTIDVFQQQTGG

B1: zinc finger protein associated with TDP2 and TOP2 (ZATT/ZNF451) (enzyme, UniProt Q9Y4E5 1-1061)
chain: MGDPGSEIIESVPPAGPEASESTTDENEDDIQFVSEGPLRPVLEYIDLVSSDDEEPSTSYTDENIKRKDHIDYQKDKVALTLARLARHVEVEKQQKEEKNRAFREKIDFQHAHGLQELEFIRGHSDTEAARLCVDQWLKMPGLKTGTINCGTKSSFRRGGHTWVSGKPILCPIMHCNKEFDNGHLLLGHLKRFDHSPCDPTITLHGPFFSSFACVVCYKKFVTQQQYRDHLFDKEATDDGHNNNLLPQIIQCFACPNCFLLFSRKEECSKHMSGKNHFHQSFKLGDNKGIAHPISFPSFAKKLLISLCKDVPFQVKCVACHKTLRSHMELTAHFRVHCRNAGPVAVAEKSITQVAEKFILRGYCPDCNQVFVDETSTQNHKQNSGHKVRVINSVEESVLLYCHSSEGNKDPSSDLHLLLDQSKFSSLKRTMSIKESSSLECIAIPKKKMNLKDKSHEGVACVQKEKSVVKTWFCECNQRFPSEDAVEKHVFSANTMGYKCVVCGKVCDDSGVIRLHMSRIHGGAHLNNFLFWCRTCKKELTRKDTIMAHVTEFHNGHRYFYEMDEVEGETLPSSSTTLDNLTANKPSSAITVIDHSPANSSPRGKWQCRICEDMFDSQEYVKQHCMSLASHKFHRYSCAHCRKPFHKIETLYRHCQDEHDNEIKIKYFCGLCDLIFNVEEAFLSHYEEHHSIDYVFVSEKTETSIKTEDDFPVIETSNQLTCGCRESYICKVNRKEDYSRCLQIMLDKGKLWFRCSLCSATAQNLTDMNTHIHQVHKEKSDEEEQQYVIKCGTCTKAFHDPESAQQHFHRKHCFLQKPSVAHFGSEKSNLYKFTASASHTERKLKQAINYSKSLDMEKGVENDLSYQNIEEEIVELPDLDYLRTMTHIVFVDFDNWSNFFGHLPGHLNQGTFIWGFQGGNTNWKPPLNCKIYNYLNRIGCFFLHPRCSKRKDAADFAICMHAGRLDEQLPKQIPFTILSGDQGFLELENQFKKTQRPAHILNPHHLEGDMMCALLNSISDTTKECDSDDNMGAKNTSIGEEFISTEDVELEEAIRRSLEEM

Target: T1, mCherry-RAD54L2^WT (UniProt Q9Y4B4)
T1 sequence: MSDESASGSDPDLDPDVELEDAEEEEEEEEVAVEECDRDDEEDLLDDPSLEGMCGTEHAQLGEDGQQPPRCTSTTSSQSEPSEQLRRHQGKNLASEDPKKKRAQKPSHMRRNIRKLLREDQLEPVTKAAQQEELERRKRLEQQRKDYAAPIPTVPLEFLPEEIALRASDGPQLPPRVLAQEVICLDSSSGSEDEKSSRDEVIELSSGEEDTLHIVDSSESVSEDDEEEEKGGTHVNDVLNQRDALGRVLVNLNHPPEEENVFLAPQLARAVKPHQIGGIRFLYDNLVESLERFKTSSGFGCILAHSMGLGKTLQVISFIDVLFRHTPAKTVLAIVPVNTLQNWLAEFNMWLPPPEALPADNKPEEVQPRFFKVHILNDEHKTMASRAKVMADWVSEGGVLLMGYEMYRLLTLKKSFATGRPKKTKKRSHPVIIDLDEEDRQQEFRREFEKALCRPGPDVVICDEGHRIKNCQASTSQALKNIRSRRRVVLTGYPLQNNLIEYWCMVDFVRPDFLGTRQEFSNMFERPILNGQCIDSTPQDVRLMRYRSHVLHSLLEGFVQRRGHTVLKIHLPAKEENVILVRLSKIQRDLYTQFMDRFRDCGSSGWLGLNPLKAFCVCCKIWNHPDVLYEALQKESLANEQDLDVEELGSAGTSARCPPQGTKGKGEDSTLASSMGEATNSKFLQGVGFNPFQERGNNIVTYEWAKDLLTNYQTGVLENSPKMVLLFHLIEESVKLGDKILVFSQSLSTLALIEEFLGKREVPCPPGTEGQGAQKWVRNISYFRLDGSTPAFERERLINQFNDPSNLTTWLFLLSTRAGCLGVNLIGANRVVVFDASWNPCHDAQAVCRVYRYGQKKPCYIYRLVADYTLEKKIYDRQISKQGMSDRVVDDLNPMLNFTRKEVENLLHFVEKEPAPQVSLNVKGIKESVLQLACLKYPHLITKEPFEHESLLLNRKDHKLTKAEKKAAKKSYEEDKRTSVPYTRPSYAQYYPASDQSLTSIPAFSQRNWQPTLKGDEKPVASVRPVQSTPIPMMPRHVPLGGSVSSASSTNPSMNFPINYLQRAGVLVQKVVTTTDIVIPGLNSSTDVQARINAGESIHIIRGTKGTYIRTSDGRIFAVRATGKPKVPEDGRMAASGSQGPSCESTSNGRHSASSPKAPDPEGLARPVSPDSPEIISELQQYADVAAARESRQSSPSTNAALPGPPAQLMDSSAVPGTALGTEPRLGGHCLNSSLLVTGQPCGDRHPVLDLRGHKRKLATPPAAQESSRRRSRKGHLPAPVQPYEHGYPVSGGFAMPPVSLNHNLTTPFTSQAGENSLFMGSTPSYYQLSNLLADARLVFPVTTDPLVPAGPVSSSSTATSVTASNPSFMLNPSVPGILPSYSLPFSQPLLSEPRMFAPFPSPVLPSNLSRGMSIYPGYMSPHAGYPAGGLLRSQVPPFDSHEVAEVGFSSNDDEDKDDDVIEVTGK
Assay: affinity purification with mass spectrometry; mCherry-RAD54L2 precipitated on RFP-Trap magnetic beads from extracts of RPE-1 cells, untreated or etoposide-treated; bound proteins digested in-gel, label-free quantitation against mCherry alone

binding, binds:
SUMO1 (from UniProt P63165 1-97)
SUMO2 (from UniProt P61956)
SUMO3 (from UniProt P55854 1-92)
B1
